For two substances, binding results are on record in doi:10.1101/2022.07.02.497654.

Sequences of proteins named here, by UniProt entry; tags and fusion partners are left off. A change or cut given only in a name is not applied to a line headed by its entry.
UniProt Q15910: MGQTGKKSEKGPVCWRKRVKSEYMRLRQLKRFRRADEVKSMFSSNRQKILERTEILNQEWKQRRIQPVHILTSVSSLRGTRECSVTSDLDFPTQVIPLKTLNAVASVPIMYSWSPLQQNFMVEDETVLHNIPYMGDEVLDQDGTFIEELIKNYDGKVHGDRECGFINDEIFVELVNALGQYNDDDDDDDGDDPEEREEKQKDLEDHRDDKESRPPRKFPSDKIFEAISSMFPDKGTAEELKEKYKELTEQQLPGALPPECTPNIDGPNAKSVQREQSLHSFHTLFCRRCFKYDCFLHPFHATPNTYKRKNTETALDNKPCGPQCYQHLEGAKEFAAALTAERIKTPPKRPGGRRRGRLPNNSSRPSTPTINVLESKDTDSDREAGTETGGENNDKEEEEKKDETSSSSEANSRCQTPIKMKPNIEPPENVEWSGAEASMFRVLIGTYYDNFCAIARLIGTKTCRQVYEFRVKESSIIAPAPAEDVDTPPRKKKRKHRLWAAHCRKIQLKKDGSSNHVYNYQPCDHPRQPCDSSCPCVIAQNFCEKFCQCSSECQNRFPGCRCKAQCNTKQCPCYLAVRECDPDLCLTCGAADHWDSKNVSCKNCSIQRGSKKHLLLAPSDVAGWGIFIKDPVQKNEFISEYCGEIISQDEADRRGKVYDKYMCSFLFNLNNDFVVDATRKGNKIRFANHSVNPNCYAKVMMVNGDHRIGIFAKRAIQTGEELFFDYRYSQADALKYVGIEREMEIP
UniProt Q13285: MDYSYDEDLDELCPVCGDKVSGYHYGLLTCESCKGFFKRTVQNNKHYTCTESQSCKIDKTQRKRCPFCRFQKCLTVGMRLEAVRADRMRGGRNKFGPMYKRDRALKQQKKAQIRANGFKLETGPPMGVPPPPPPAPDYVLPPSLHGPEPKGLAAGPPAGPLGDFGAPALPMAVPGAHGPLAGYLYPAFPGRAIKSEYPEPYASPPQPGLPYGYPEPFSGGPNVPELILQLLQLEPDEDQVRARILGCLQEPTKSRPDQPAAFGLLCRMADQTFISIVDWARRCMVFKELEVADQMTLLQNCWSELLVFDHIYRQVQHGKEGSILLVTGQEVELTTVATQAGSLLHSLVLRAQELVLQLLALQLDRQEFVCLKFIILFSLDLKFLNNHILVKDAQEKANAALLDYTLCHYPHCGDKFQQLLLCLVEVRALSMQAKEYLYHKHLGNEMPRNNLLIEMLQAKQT
UniProt P35222: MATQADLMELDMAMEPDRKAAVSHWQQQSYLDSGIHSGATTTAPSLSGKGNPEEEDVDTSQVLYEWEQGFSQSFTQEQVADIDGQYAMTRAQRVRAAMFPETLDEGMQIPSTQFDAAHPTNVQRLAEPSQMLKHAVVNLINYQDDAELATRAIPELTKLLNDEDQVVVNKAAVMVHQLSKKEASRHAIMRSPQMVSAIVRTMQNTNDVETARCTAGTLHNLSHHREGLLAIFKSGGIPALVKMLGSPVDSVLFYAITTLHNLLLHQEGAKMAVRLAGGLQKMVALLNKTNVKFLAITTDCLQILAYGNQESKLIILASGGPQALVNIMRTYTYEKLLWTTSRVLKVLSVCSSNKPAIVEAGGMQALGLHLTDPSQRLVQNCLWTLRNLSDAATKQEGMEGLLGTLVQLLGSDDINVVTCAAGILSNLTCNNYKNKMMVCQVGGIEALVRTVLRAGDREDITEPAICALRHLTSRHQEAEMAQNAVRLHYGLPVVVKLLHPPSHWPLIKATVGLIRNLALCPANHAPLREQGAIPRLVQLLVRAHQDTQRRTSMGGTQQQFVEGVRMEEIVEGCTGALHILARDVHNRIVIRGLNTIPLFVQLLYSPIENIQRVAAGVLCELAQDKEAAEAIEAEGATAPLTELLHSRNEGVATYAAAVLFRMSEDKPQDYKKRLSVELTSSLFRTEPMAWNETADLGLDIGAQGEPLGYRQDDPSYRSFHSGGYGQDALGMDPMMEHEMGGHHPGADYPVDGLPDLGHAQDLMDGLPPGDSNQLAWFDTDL

In assay [1] the target is EZH2 (human (endogenous in NCI-H295R and in human adrenal tissue)) (UniProt Q15910). Kind of assay: affinity purification with mass spectrometry.
The target in assay [2] is SF1 (NR5A1) (human (endogenous in NCI-H295R and in human adrenal tissue)) (UniProt Q13285). Kind of assay: affinity purification with mass spectrometry.

No constants are given. Whether binding was seen depends on the method and setting. Binding seen in cells or lysates may run through a third protein. Here binding means that the protein was enriched with, or labelled near, the bait; the list need not be complete. For part of these data: A no says only that the protein was not detected with the bait.

“p.S45P β-catenin (from UniProt P35222 1-781)”: the binding result in assay [1] and in assay [2] was “binds” in each case.
For SF1 (NR5A1) (from UniProt Q13285 1-461), the binding entry in assay [1] is given as “no binding”.
